# Some of the results follow. Repeats are few or missing, and single values can be far off.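 Imaging used 1,536-well plates; nuclei positive for cleaved PARP by antibody were divided by total DNA-stained nuclei to yield the apoptosis fraction. Doses for screening kept most cells viable, and cell lines differ markedly in resting and induced cleaved-PARP levels.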
# Test system: WM1716
# Experiment: cleaved PARP positive nuclei fraction relative to DMSO control; melanoma cells; higher = more apoptosis
# Settings: library dose: low library concentration; 72 h
row,SMILES,cleaved PARP positive nuclei fraction [%]
1,"CS(=O)(=O)c1ccc(C(=O)Nc2ccc(Cl)c(-c3ccccn3)c2)c(Cl)c1 [vismodegib] + Nc1ccn([C@@H]2O[C@H](CO)[C@@H](O)C2(F)F)c(=O)n1 [gemcitabine] (first compound 1 µM, partner dose 0.0004 µM)",55.9
2,"CCCCCCCCc1ccc(CCC(N)(CO)CO)cc1 [fingolimod] + CCN(CC)CCCCNc1ncc2cc(-c3cc(OC)cc(OC)c3)c(NC(=O)NC(C)(C)C)nc2n1 [PD173074] (first compound 2 µM, partner dose 0.1 µM)",256
3,"COc1ccc(C2=N[C@@H](c3ccc(Cl)cc3)[C@@H](c3ccc(Cl)cc3)N2C(=O)N2CCNC(=O)C2)c(OC(C)C)c1 [Nutlin-3] + Nc1nc(F)nc2c1ncn2[C@@H]1O[C@H](CO)[C@@H](O)[C@@H]1O [fludarabine] (first compound 0.1 µM, partner dose 0.2 µM)",309
4,"NC(=O)c1ccc(N(C(N)=O)c2c(F)cccc2F)nc1-c1ccc(F)cc1F + CS(=O)(=O)CCNCc1ccc(-c2ccc3ncnc(Nc4ccc(OCc5cccc(F)c5)c(Cl)c4)c3c2)o1 [lapatinib] (first compound 0.4 µM, partner dose 0.8 µM)",91.1
5,"NC1(c2ccc(-c3nc4ccn5c(=O)[nH]nc5c4cc3-c3ccccc3)cc2)CCC1 + C=C(c1ccc(C(=O)O)cc1)c1cc2c(cc1C)C(C)(C)CCC2(C)C [Bexarotene] (first compound 0.4 µM, partner dose 2 µM)",93.1

# Source: the supplement of paper PMC4604168 (melanoma cell lines)
